Values from PubChem BioAssay AID504784 (Drosophila RNAi Screening Center, 2011).

Aim: 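Genome-wide knock-down for genes giving too much or too little stored lipid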 (primary screen)
Cells: Drosophila Kc167 embryonic cells
Reagents: long dsRNA against Drosophila genes, about 250 ng dsRNA per well
Timing: 4 days
Challenge: cells fed 400 µM oleic acid bound to BSA
Read-out: 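Cells imaged and segmented; ratio of lipid droplet area to nuclear area, log-transformed, then normalised as a B-score over the screen; higher means more stored lipid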
Reading the numbers: droplet/nuclear area B-score: higher = more stored lipid (overstorage)
In all, the deposit lists about 17,000 reagents; shown is an unselected part of those that have a named target and a result. 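Each column is one replicate's B-score; the combined score over replicates was not deposited, so single values may mislead.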 A plus sign joins genes that one reagent is predicted to hit. Further read-outs or replicates are left out here.

The first 10 records, ahead of the listing:
no.	predicted target	amplicon	droplet/nuclear area B-score, replicate 1
1	CG15382 (GeneID 33391)	DRSC00397	-0.299
2	CG4049 (GeneID 37860)	DRSC04443	0.878
3	meru (GeneID 39727)	DRSC09400	0.542
4	meru (GeneID 39727)	DRSC09899	-4.78
5	meru (GeneID 39727)	DRSC10215	-0.00508
6	CG2852 (GeneID 37591)	DRSC04321	-3.06
7	CG5664 (GeneID 40371)	DRSC11782	-0.00855
8	dgt3 (GeneID 37377)	DRSC04349	-1.77
9	bcn92 (GeneID 31186)	DRSC18741	0.0207
10	Hsp23 (GeneID 39077)	DRSC11188	0.628

The list itself, from the first entry:
no.	predicted target	amplicon	droplet/nuclear area B-score, replicate 1
1	CG15382 (GeneID 33391)	DRSC00397	-0.299
2	CG4049 (GeneID 37860)	DRSC04443	0.878
3	meru (GeneID 39727)	DRSC09400	0.542
4	meru (GeneID 39727)	DRSC09899	-4.78
5	meru (GeneID 39727)	DRSC10215	-0.00508
6	CG2852 (GeneID 37591)	DRSC04321	-3.06
7	CG5664 (GeneID 40371)	DRSC11782	-0.00855
8	dgt3 (GeneID 37377)	DRSC04349	-1.77
9	bcn92 (GeneID 31186)	DRSC18741	0.0207
10	Hsp23 (GeneID 39077)	DRSC11188	0.628
11	snky (GeneID 39492)	DRSC09838	-1.55
12	Rme-8 (GeneID 35939)	DRSC07054	0.0643
13	CG7382 (GeneID 33772)	DRSC03052	-0.0515
14	lncRNA:sphinx + ATPsynF	DRSC17191	2.05
15	haf (GeneID 33339)	DRSC00381	1.19
16	E5 (GeneID 45396)	DRSC13000	-0.56
17	E5 (GeneID 45396)	DRSC16585	0.0472
18	E5 (GeneID 45396)	DRSC23157	-1.93
19	BBS1 (GeneID 38780)	DRSC10196	0.459
20	natalisin (GeneID 5740700)	DRSC14966	-0.613
21	natalisin (GeneID 5740700)	DRSC14967	-2
22	Cbp53E (GeneID 36905)	DRSC07356	0.791
23	CG18233 (GeneID 40025)	DRSC10308	-0.901
24	Pkg21D (GeneID 33253)	DRSC00772	0.549
25	CG10126 (GeneID 41579)	DRSC14191	-0.00547
26	CG9616 (GeneID 41731)	DRSC16518	-1.69
27	CG12768 (GeneID 40513)	DRSC11680	-0.353
28	CG12768 (GeneID 40513)	DRSC23215	0.794
29	Crag (GeneID 31800)	DRSC18454	-2.31
30	CG12698 (GeneID 32570)	DRSC19485	-0.279
31	Cdc7 (GeneID 31598)	DRSC18428	-4.04
32	Cdc7 (GeneID 31598)	DRSC18429	-1.63
33	Cdc7 (GeneID 31598)	DRSC22133	2.78
34	Nbr (GeneID 35385)	DRSC03166	0.0482
35	obst-F (GeneID 40209)	DRSC10805	-1.09
36	CG10469 (GeneID 38696)	DRSC09729	0.831
37	Gasp (GeneID 40745)	DRSC12349	-0.738
38	nvd (GeneID 5740633)	DRSC22139	0.722
39	CG1909 (GeneID 43800)	DRSC17150	0.496
40	CG17292 (GeneID 34152)	DRSC02594	-0.392
41	CG13578 (GeneID 37891)	DRSC04214	0.594
42	Nle (GeneID 33234)	DRSC00763	0.182
43	mRpS34 (GeneID 39809)	DRSC09918	2.64
44	Osi5 (GeneID 40759)	DRSC12276	1.07
45	CG31678 (GeneID 35327)	DRSC02618	-1.63
46	CG31678 (GeneID 35327)	DRSC02619	1.15
47	Orc6 (GeneID 36017)	DRSC07497	0.064
48	CG15282 (GeneID 34853)	DRSC22620	-3.7
49	CG15282 (GeneID 34853)	DRSC23090	-0.821
50	CG10068 (GeneID 40852)	DRSC12508	0.528
51	CG31522 (GeneID 40567)	DRSC12005	0.454
52	CG15097 (GeneID 37172)	DRSC06526	-0.617
53	CG14881 (GeneID 41990)	DRSC15005	-0.757
54	Gr28a (GeneID 117348)	DRSC02290	-0.328
55	Octalpha2R (GeneID 42258)	DRSC13319	-0.376
56	Octalpha2R (GeneID 42258)	DRSC15314	2.69
57	CG1889 (GeneID 31928)	DRSC18195	0.0363
58	nmdyn-D6 (GeneID 32396)	DRSC20355	0.282
59	CG6044 (GeneID 37558)	DRSC04522	0.666
60	Prosalpha3 (GeneID 37378)	DRSC04644	0.47
61	Gpdh2 (GeneID 37672)	DRSC04346	-0.0173
62	PGRP-LE (GeneID 32534)	DRSC20137	-0.259
63	CG32301 (GeneID 38285)	DRSC08613	-1.19
64	l(2)k05911 (GeneID 34731)	DRSC02523	0.735
65	l(1)G0289 (GeneID 31964)	DRSC18215	1.68
66	CCT7 (GeneID 41054)	DRSC16410	0.0411
67	Sidpn (GeneID 35168)	DRSC02056	-2.53
68	bgcn (GeneID 47873)	DRSC04062	-0.937
69	bgcn (GeneID 47873)	DRSC04063	-2.82
70	B4 (GeneID 34767)	DRSC01868	-0.105
71	B4 (GeneID 34767)	DRSC03175	0.294
72	PolH (GeneID 40438)	DRSC11800	0.148
73	Map205 (GeneID 43765)	DRSC16732	-3.88
74	CG9391 (GeneID 40346)	DRSC11858	-0.0899
75	CG17233 (GeneID 40220)	DRSC10259	-1.17
76	Cdep (GeneID 40608)	DRSC12028	0.711
77	Cdep (GeneID 40608)	DRSC12220	-2.37
78	Cdep (GeneID 40608)	DRSC12291	-0.643
79	Gr39a (GeneID 117346)	DRSC01841	1.05
80	Gr39a (GeneID 117346)	DRSC01842	-0.628
81	stet (GeneID 38169)	DRSC08246	-1.14
82	stet (GeneID 38169)	DRSC08283	1.09
83	kel (GeneID 35084)	DRSC03554	-2.85
